Assay results from publication PMC10808074, “Regulation of micro- and small-exon retention and other splicing processes by GRP20 for flower development”.
These are yes or no findings as the source states them, for the method shown. Binding seen in cells or lysates may run through a third protein. These calls come from enrichment with a bait or labelling near it, and not all partners need be listed.

Molecular target: GRP20-YFP fusion protein expressed in plants (Arabidopsis thaliana) (UniProt Q9LY07)
Assay: affinity purification with mass spectrometry; immunoprecipitation-mass spectrometry with a GRP20-YFP protein expressed in plants

binding: binds
B1: CLO (spliceosome U5 component found by IP-MS) (protein, UniProt Q9LNC5 1-987)
chain: MESSLYDEFGNYVGPEIESDRDSDDEVEDEDLQDKHLEENGSDGEQGPGGSNGWITTINDVEMENQIVLPEDKKYYPTAEEVYGEDVETLVMDEDEQPLEQPIIKPVRDIRFEVGVKDQATYVSTQFLIGLMSNPALVRNVALVGHLQHGKTVFMDMLVEQTHHMSTFNAKNEKHMKYTDTRVDEQERNISIKAVPMSLVLEDSRSKSYLCNIMDTPGHVNFSDEMTASLRLADGAVLIVDAAEGVMVNTERAIRHAIQDHLPIVVVINKVDRLITELKLPPRDAYYKLRHTIEVINNHISAASTTAGDLPLIDPAAGNVCFASGTAGWSFTLQSFAKMYAKLHGVAMDVDKFASRLWGDVYYHSDTRVFKRSPPVGGGERAFVQFILEPLYKIYSQVIGEHKKSVETTLAELGVTLSNSAYKLNVRPLLRLACSSVFGSASGFTDMLVKHIPSPREAAARKVDHSYTGTKDSPIYESMVECDPSGPLMVNVTKLYPKSDTSVFDVFGRVYSGRLQTGQSVRVLGEGYSPEDEEDMTIKEVTKLWIYQARYRIPVSSAPPGSWVLIEGVDASIMKTATLCNASYDEDVYIFRALQFNTLPVVKTATEPLNPSELPKMVEGLRKISKSYPLAITKVEESGEHTILGTGELYLDSIMKDLRELYSEVEVKVADPVVSFCETVVESSSMKCFAETPNKKNKITMIAEPLDRGLAEDIENGVVSIDWNRKQLGDFFRTKYDWDLLAARSIWAFGPDKQGPNILLDDTLPTEVDRNLMMAVKDSIVQGFQWGAREGPLCDEPIRNVKFKIVDARIAPEPLHRGSGQMIPTARRVAYSAFLMATPRLMEPVYYVEIQTPIDCVTAIYTVLSRRRGHVTSDVPQPGTPAYIVKAFLPVIESFGFETDLRYHTQGQAFCLSVFDHWAIVPGDPLDKAIQLRPLEPAPIQHLAREFMVKTRRRKGMSEDVSGNKFFDEAMMVELAQQTGDLHLQMI
